From patent US20160024421A1, “IONIC LIQUIDS CONTAINING QUATERNARY PHOSPHONIUM CATIONS AND CARBOXYLATE ANIONS, AND THEIR USE AS LUBRICANT ADDITIVES” (UT-Battelle, LLC, priority 2014, published 2016)

Assay: Ball-on-flat reciprocating tribological bench test (wear rate)
Settings: 1.65 wt % IL in PAO vs 1.67 wt % AP in PAO; 100 N, 100° C., 10 Hz, 1000 m; total wear rate (ball and plate)

trihexyltetradecylphosphonium 2-ethylhexanoate [[P66614][C7H15COO]b]
wear reduction versus commercial amine-phosphate AW additive: > 56%
